{
  "source": "paper PMC9122589",
  "biological_target": "BrxR R47A (Acinetobacter sp. NEB394) (UniProt A0A7H8SL41)",
  "assay": "EMSA",
  "conditions": "legend: significant reduction, text: site-specific binding eliminated; EMSA: 20 mM Tris pH 7.9, 40 mM NaCl, 2.5% sucrose, 22 C, 30 min; 20 nM DNA (10 nM in Fig S6), 25-800 nM BrxR; 7% native gel in TBE; recombinant protein; protein details: N-terminal His6 removed by thrombin",
  "note": "For at least one entry, the source does not settle the construct or the ends of the probe. A weaker result is weaker than the reference pair of the same experiment.",
  "data": [
    {"sequence": "GCGGAGTCCATCCAAACATCGGGAGATTTTGATCAGATATGTTTAACCTGCCCTCACAATACCGTAAAAATAATTTACTGTATATTCATTGTAGGGTAGTCTTGATCACATTGTTTATTGACCGATTGTTCTATGACAGCAGACAAGCATGAAGTGCTTCTCAGAATGAGGGCGATTGAGTTACTGGCCTACTGGGAAGGGCGTTTG (double strand) [BREX upstream region -109/+98 (~200 bp)]", "values": [
      {"measurement": "binding result", "value": "binds more weakly"}
    ]}
  ]
}
